In PMC10076305:
These are yes or no findings as the source states them, for the method shown. In cells and extracts the contact can be indirect. Some results given as binding are weak or reduced against the parent protein; the word gives no strength.

By UniProt entry, the sequences of proteins in these tests, tags left out.
UniProt P37238: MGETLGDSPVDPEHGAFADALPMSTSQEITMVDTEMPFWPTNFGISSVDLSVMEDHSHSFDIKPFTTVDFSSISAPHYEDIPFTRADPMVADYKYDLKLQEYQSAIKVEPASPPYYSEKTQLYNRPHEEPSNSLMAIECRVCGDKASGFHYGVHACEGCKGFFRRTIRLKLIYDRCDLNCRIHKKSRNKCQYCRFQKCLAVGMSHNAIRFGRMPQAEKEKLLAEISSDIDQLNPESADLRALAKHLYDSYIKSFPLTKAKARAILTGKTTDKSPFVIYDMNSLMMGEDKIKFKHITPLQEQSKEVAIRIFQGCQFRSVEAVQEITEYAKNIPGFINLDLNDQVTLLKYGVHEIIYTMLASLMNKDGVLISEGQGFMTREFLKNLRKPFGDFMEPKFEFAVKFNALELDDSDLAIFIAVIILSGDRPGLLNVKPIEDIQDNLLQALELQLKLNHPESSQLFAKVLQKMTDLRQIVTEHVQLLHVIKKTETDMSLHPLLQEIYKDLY

T1: Staphylococcal Nuclease And Tudor Domain Containing 1 (mouse (endogenous in C3H10 and 3T3-L1)) (UniProt Q78PY7)
T1 sequence: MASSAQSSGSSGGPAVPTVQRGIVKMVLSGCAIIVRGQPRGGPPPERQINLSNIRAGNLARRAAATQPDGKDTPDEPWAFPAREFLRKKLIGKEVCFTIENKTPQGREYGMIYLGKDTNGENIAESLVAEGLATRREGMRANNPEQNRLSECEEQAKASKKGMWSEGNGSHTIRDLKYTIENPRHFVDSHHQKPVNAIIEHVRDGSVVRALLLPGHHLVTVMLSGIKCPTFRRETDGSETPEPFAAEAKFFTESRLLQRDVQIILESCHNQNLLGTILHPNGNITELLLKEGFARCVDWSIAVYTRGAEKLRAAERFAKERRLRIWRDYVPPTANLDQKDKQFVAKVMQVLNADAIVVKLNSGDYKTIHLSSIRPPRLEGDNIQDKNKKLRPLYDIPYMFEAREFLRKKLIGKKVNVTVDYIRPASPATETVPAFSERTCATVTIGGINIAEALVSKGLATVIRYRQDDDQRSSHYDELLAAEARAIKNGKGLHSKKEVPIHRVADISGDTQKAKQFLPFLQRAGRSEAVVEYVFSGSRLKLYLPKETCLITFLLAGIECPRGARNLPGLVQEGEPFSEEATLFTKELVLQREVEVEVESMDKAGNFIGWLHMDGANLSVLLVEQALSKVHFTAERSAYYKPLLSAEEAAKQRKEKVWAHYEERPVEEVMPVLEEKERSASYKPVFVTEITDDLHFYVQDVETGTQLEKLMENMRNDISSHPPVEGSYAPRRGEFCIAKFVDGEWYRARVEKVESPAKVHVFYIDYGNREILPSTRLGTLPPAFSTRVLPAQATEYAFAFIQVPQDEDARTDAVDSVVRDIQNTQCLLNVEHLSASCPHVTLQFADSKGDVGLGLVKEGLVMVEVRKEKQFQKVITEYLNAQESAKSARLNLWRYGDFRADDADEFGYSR


Target: T1, Staphylococcal Nuclease And Tudor Domain Containing 1 (mouse (endogenous in C3H10 and 3T3-L1))
Test: co-IP; endogenous proteins in RIPA lysates of C3H10 and 3T3-L1 cells, harvested at the indicated time points of adipogenic differentiation; antibody on Protein L magnetic beads, 1 h at room temperature, washed in PBST; IgG antibody as negative control; Western blot

Molecule | binding
Peroxisome proliferator activated receptor gamma (from UniProt P37238 1-505) | binds
Microfibril-Associated Protein 5 (protein, UniProt Q9QZJ6 29-164) QRGDDVPETFTDDPNLVNDPSTDDTALADITPSTDDLAGDKNATAECRDEKFACTRLYSVHRPVRQCVHQSCFTSLRRMYIINNEICSRLVCKEHEAMKDELCRQMAGLPPRRLRRSNYFRLPPCENMNLQRPDGL | binds
